# In the supplement of paper PMC8728848:
# This is one part of the list.
# How the values were obtained:
# Assay in all cases: glycan array binding signal (z-score within array); higher = stronger binding
# Details in all cases: glycan notation: IUPAC condensed, linker removed
# [1] = biological target: Gal(b1-3)GlcNAc(b1-6)[Gal(b1-3)]GalNAc
# Procedure, shortened: (§1)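 The binding signal is a Z-score computed within each array. Data were drawn from 3228 arrays in the Consortium for Functional Glycomics database, restricted to those with a known protein sequence. Scores were averaged over arrays of the same protein sequence at different concentrations or buffers, and over linkers, and negative values can be taken as non-binding.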
# Gal(b1-3)GlcNAc6S = biological target: Gal(b1-3)GlcNAc6S
# Procedure, shortened: as §1
# [2] = biological target: Gal(b1-3)[Fuc(a1-4)]GlcNAc
# Procedure, shortened: as §1
# [3] = biological target: Gal(b1-3)[Fuc(a1-4)]GlcNAc(b1-2)Man
# Procedure, shortened: as §1
# [4] = biological target: Gal(b1-3)[Fuc(a1-4)]GlcNAc(b1-2)Man(a1-3)[Gal(b1-3)[Fuc(a1-4)]GlcNAc(b1-2)Man(a1-6)]Man(b1-4)GlcNAc(b1-4)[Fuc(a1-6)]GlcNAc
# Procedure, shortened: as §1
# [5] = biological target: Gal(b1-3)[Fuc(a1-4)]GlcNAc(b1-3)Gal(b1-3)[Fuc(a1-4)]GlcNAc
# Procedure, shortened: as §1
# [6] = biological target: Gal(b1-3)[Fuc(a1-4)]GlcNAc(b1-3)Gal(b1-4)[Fuc(a1-3)]GlcNAc
# Procedure, shortened: as §1
# [7] = biological target: Gal(b1-3)[Fuc(a1-4)]GlcNAc(b1-6)GalNAc
# Procedure, shortened: as §1
# [8] = biological target: Gal(b1-3)[GlcNAc(b1-6)]GalNAc
# Procedure, shortened: as §1
# [9] = biological target: Gal(b1-3)[Neu5Ac(a2-6)]GalNAc
# Procedure, shortened: as §1
# [10] = biological target: Gal(b1-3)[Neu5Ac(a2-6)]GlcNAc(b1-4)Gal(b1-4)Glc
# Procedure, shortened: as §1
# [11] = biological target: Gal(b1-3)[Neu5Ac(b2-6)]GalNAc
# Procedure, shortened: as §1
# Gal(b1-4)Gal = biological target: Gal(b1-4)Gal
# Procedure, shortened: as §1
# [12] = biological target: Gal(b1-4)GalNAc(a1-3)[Fuc(a1-2)]Gal(b1-4)GlcNAc
# Procedure, shortened: as §1
# [13] = biological target: Gal(b1-4)GalNAc(b1-3)[Fuc(a1-2)]Gal(b1-4)GlcNAc
# Procedure, shortened: as §1
# Gal(b1-4)Glc = biological target: Gal(b1-4)Glc
# Procedure, shortened: as §1
# Gal(b1-4)Glc6S = biological target: Gal(b1-4)Glc6S
# Procedure, shortened: as §1
# Gal(b1-4)GlcNAc = biological target: Gal(b1-4)GlcNAc
# Procedure, shortened: as §1
# [14] = biological target: Gal(b1-4)GlcNAc(a1-6)Gal(b1-4)GlcNAc
# Procedure, shortened: as §1
# Gal(b1-4)GlcNAc(b1-2)Man = biological target: Gal(b1-4)GlcNAc(b1-2)Man
# Procedure, shortened: as §1
# [15] = biological target: Gal(b1-4)GlcNAc(b1-2)Man(a1-3)Man(b1-4)GlcNAc(b1-4)GlcNAc
# Procedure, shortened: as §1
# [16] = biological target: Gal(b1-4)GlcNAc(b1-2)Man(a1-3)[Gal(b1-4)GlcNAc(b1-2)Man(a1-6)]Man(b1-4)GlcNAc(b1-4)GlcNAc
# Procedure, shortened: as §1
# [17] = biological target: Gal(b1-4)GlcNAc(b1-2)Man(a1-3)[Gal(b1-4)GlcNAc(b1-2)Man(a1-6)]Man(b1-4)GlcNAc(b1-4)[Fuc(a1-6)]GlcNAc
# Procedure, shortened: as §1
# [18] = biological target: Gal(b1-4)GlcNAc(b1-2)Man(a1-3)[Gal(b1-4)GlcNAc(b1-2)Man(a1-6)][Gal(b1-4)GlcNAc(b1-4)]Man(b1-4)GlcNAc(b1-4)[Fuc(a1-6)]GlcNAc
# Procedure, shortened: as §1
# [19] = biological target: Gal(b1-4)GlcNAc(b1-2)Man(a1-3)[Gal(b1-4)GlcNAc(b1-2)Man(a1-6)][GlcNAc(b1-4)]Man(b1-4)GlcNAc(b1-4)[Fuc(a1-6)]GlcNAc
# Procedure, shortened: as §1
# [20] = biological target: Gal(b1-4)GlcNAc(b1-2)Man(a1-3)[GlcNAc(b1-2)Man(a1-6)]Man(b1-4)GlcNAc(b1-4)GlcNAc
# Procedure, shortened: as §1
# [21] = biological target: Gal(b1-4)GlcNAc(b1-2)Man(a1-3)[GlcNAc(b1-4)][Gal(b1-4)GlcNAc(b1-2)Man(a1-6)]Man(b1-4)GlcNAc(b1-4)GlcNAc
# Procedure, shortened: as §1
# [22] = biological target: Gal(b1-4)GlcNAc(b1-2)Man(a1-3)[Man(a1-6)]Man(b1-4)GlcNAc(b1-4)GlcNAc
# Procedure, shortened: as §1
# [23] = biological target: Gal(b1-4)GlcNAc(b1-2)Man(a1-6)Man(b1-4)GlcNAc(b1-4)GlcNAc
# Procedure, shortened: as §1
# [24] = biological target: Gal(b1-4)GlcNAc(b1-2)Man(a1-6)[GlcNAc(b1-2)Man(a1-3)]Man(b1-4)GlcNAc(b1-4)GlcNAc
# Procedure, shortened: as §1
# [25] = biological target: Gal(b1-4)GlcNAc(b1-2)Man(a1-6)[Man(a1-3)]Man(b1-4)GlcNAc(b1-4)GlcNAc
# Procedure, shortened: as §1
# [26] = biological target: Gal(b1-4)GlcNAc(b1-2)[Gal(b1-4)GlcNAc(b1-4)]Man(a1-3)[Gal(b1-4)GlcNAc(b1-2)Man(a1-6)]Man(b1-4)GlcNAc(b1-4)GlcNAc
# Procedure, shortened: as §1
# [27] = biological target: Gal(b1-4)GlcNAc(b1-2)[Gal(b1-4)GlcNAc(b1-4)]Man(a1-3)[Gal(b1-4)GlcNAc(b1-2)[Gal(b1-4)GlcNAc(b1-6)]Man(a1-6)]Man(b1-4)GlcNAc(b1-4)GlcNAc
# Procedure, shortened: as §1
# [28] = biological target: Gal(b1-4)GlcNAc(b1-2)[Gal(b1-4)GlcNAc(b1-4)]Man(a1-3)[GlcNAc(b1-4)][Gal(b1-4)GlcNAc(b1-2)Man(a1-6)]Man(b1-4)GlcNAc(b1-4)GlcNAc
# Procedure, shortened: as §1
# [29] = biological target: Gal(b1-4)GlcNAc(b1-2)[Gal(b1-4)GlcNAc(b1-4)]Man(a1-3)[GlcNAc(b1-4)][Gal(b1-4)GlcNAc(b1-2)[Gal(b1-4)GlcNAc(b1-6)]Man(a1-6)]Man(b1-4)GlcNAc(b1-4)GlcNAc
# Procedure, shortened: as §1
# [30] = biological target: Gal(b1-4)GlcNAc(b1-2)[Gal(b1-4)GlcNAc(b1-6)]Man(a1-6)[Gal(b1-4)GlcNAc(b1-2)Man(a1-3)]Man(b1-4)GlcNAc(b1-4)GlcNAc
# Procedure, shortened: as §1
# [31] = biological target: Gal(b1-4)GlcNAc(b1-2)[Gal(b1-4)GlcNAc(b1-6)]Man(a1-6)[Gal(b1-4)GlcNAc(b1-2)Man(a1-3)]Man(b1-4)GlcNAc(b1-4)[Fuc(a1-6)]GlcNAc
# Procedure, shortened: as §1
binder,measurement,setting,value
GS7807G-bfa-506-18-506 (Bacteroides fragilis) (protein) ASCDKFDEINTDPDATTKVTSSLLATGLLLDITSSSASKSFIYDELLAKQMAWGESMEDYQYNVFGRSGFGGYTTLINAQKMVESVSDDNVNAYDGLAHFIKAYKIFYMSMEMGDLPYEEALQGELGLVRPKYNTQKEVMNFILSDLETAYELFSTAKDFDGDPILGGSISKWKKATTAFQLKVLMHLSKKESDADLKVKERFARIVASGSLMESNEDNLQMKYADKANTVYPFHNTNTKHAGYAMLSTMLIDKFKATGDIRMFYYAKPAKAKLNEGVTADSWDAYIGTDPSLPFEQIEKAYATEQYSGFNARYTDYPSGEPVVRLGYAEQNFILAEAAVRGWISGDASAYYKKAIRAHMEFIASNTPDEEVYHHGHPITEEAIAAFLETPAIQLSGEKEEDIEKILTQRYLASFMQHPYDVYYDYRRTGYPVLPINPATNRNTMNDRLPMRWMYPKSESDYNLEHQNEALERQFGGVDDVNKLMWILQ,glycan array binding signal (z-score),[1],-0.028
same,glycan array binding signal (z-score),Gal(b1-3)GlcNAc6S,0.702
same,glycan array binding signal (z-score),[2],-0.673
same,glycan array binding signal (z-score),[3],0.873
same,glycan array binding signal (z-score),[4],1.62
same,glycan array binding signal (z-score),[5],-0.731
same,glycan array binding signal (z-score),[6],-0.839
same,glycan array binding signal (z-score),[7],0.119
same,glycan array binding signal (z-score),[8],-0.612
same,glycan array binding signal (z-score),[9],-0.517
same,glycan array binding signal (z-score),[10],-0.306
same,glycan array binding signal (z-score),[11],-0.154
same,glycan array binding signal (z-score),Gal(b1-4)Gal,-0.523
same,glycan array binding signal (z-score),[12],-0.448
same,glycan array binding signal (z-score),[13],0.319
same,glycan array binding signal (z-score),Gal(b1-4)Glc,0.007
same,glycan array binding signal (z-score),Gal(b1-4)Glc6S,-0.647
same,glycan array binding signal (z-score),Gal(b1-4)GlcNAc,-0.191
same,glycan array binding signal (z-score),[14],-0.507
same,glycan array binding signal (z-score),Gal(b1-4)GlcNAc(b1-2)Man,0.722
same,glycan array binding signal (z-score),[15],1.48
same,glycan array binding signal (z-score),[16],-0.602
same,glycan array binding signal (z-score),[17],2.53
same,glycan array binding signal (z-score),[18],0.473
same,glycan array binding signal (z-score),[19],-0.154
same,glycan array binding signal (z-score),[20],-0.429
same,glycan array binding signal (z-score),[21],-0.073
same,glycan array binding signal (z-score),[22],1.4
same,glycan array binding signal (z-score),[23],0.093
same,glycan array binding signal (z-score),[24],-0.139
same,glycan array binding signal (z-score),[25],1.01
same,glycan array binding signal (z-score),[26],1.21
same,glycan array binding signal (z-score),[27],-0.615
same,glycan array binding signal (z-score),[28],1.18
same,glycan array binding signal (z-score),[29],0.515
same,glycan array binding signal (z-score),[30],1.11
same,glycan array binding signal (z-score),[31],0.773

# 2 entries drawn at random from those above, as already listed:
binder,measurement,setting,value
GS7807G-bfa-506-18-506 (Bacteroides fragilis) (protein) ASCDKFDEINTDPDATTKVTSSLLATGLLLDITSSSASKSFIYDELLAKQMAWGESMEDYQYNVFGRSGFGGYTTLINAQKMVESVSDDNVNAYDGLAHFIKAYKIFYMSMEMGDLPYEEALQGELGLVRPKYNTQKEVMNFILSDLETAYELFSTAKDFDGDPILGGSISKWKKATTAFQLKVLMHLSKKESDADLKVKERFARIVASGSLMESNEDNLQMKYADKANTVYPFHNTNTKHAGYAMLSTMLIDKFKATGDIRMFYYAKPAKAKLNEGVTADSWDAYIGTDPSLPFEQIEKAYATEQYSGFNARYTDYPSGEPVVRLGYAEQNFILAEAAVRGWISGDASAYYKKAIRAHMEFIASNTPDEEVYHHGHPITEEAIAAFLETPAIQLSGEKEEDIEKILTQRYLASFMQHPYDVYYDYRRTGYPVLPINPATNRNTMNDRLPMRWMYPKSESDYNLEHQNEALERQFGGVDDVNKLMWILQ,glycan array binding signal (z-score),[2],-0.673
same,glycan array binding signal (z-score),[20],-0.429
